Data as given in PubChem BioAssay AID602196 (INSERM, 2012).
In all, the deposit lists about 23,000 reagents; below is an unselected part. In the full data, 455 (2%) were called active. 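Active includes both protection and sensitisation; some change values fall well beyond the stated -50 to +50 range.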 Not all columns of the deposit are shown. Reagent sequences are not shown. The record does not give: the amount of reagent.

- Screen: 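Modifiers of cisplatin sensitivity in A549 cells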
- Cell system: human A549 lung cancer cells
- Reagent: siRNA pair against human genes
- Timing: 48 h transfection before cisplatin; time from cisplatin to read-out not stated
- Conditions: cisplatin at a dose killing half of control-siRNA cells; exact dose and duration not given
- Measured: 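Cisplatin cell death as a shift from the 50% death seen with control siRNA; siRNAs toxic or growth-blocking alone scored 0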
- Scale: two-siRNA summed score (-2 to +2): higher = both siRNAs protect from cisplatin killing; -2 means both sensitise
- Hit rule: 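Each siRNA scores 0 if harmful alone by LDH or WST-1, otherwise +1 if it reduces and -1 if it increases cisplatin killing; a gene is active when both siRNAs agree (sum +2 or -2)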
- Meaning of the calls: active = both siRNAs shift cisplatin killing the same way; inactive = no consistent shift, or siRNA harmful alone

Target gene | two-siRNA summed score (-2 to +2) | Outcome
USP10 | 0 | inactive
ZNF600 | 0 | inactive
RAB24 | 0 | inactive
ADRA1B | -1 | inactive
PMF1 | 0 | inactive
LOC400572 | 0 | inactive
DPH5 | 0 | inactive
COTL1 | 1 | inactive
CD1E | 0 | inactive
BRSK1 | -1 | inactive
PDILT | 0 | inactive
WFDC6 | 0 | inactive
FLJ25756 | 1 | inactive
ANGPTL6 | 0 | inactive
ACTR3 | 0 | inactive
LOC151451 | 0 | inactive
AREL1 | -1 | inactive
SERPINI2 | 0 | inactive
LOC346990 | 0 | inactive
SERF1A | 0 | inactive
CCS | 0 | inactive
RNF32-DT | 0 | inactive
EPDR1 | 0 | inactive
CSNK2B | 0 | inactive
GALNT10 | 0 | inactive
EHHADH | 1 | inactive
MGC9913 | 1 | inactive
LOC339287 | 0 | inactive
NUP205 | -1 | inactive
SRPRB | -1 | inactive
FGF7P6 | 0 | inactive
LOC153918 | 0 | inactive
MNDA | 0 | inactive
ZPBP2 | 0 | inactive
FBXO6 | -2 | active
ANP32E | 0 | inactive
HNF4A | 0 | inactive

Records above with an active call (1):
Target gene | two-siRNA summed score (-2 to +2) | Outcome
FBXO6 | -2 | active

More entries:
Target gene | two-siRNA summed score (-2 to +2) | Outcome
TGFB1 | 0 | inactive
SENP3 | 0 | inactive
LPIN2 | 0 | inactive
MXD3 | 0 | inactive
HDDC2 | 0 | inactive
RASGRF2 | 0 | inactive
SURF2 | 0 | inactive
FAM135A | 0 | inactive
SHPRH | 0 | inactive
OR52D1 | 0 | inactive
OXTR | 1 | inactive
LOC441798 | 0 | inactive
ADA | 2 | active
TDRD1 | 0 | inactive
OVGP1 | 1 | inactive
LOC201229 | 0 | inactive
USP43 | -1 | inactive
ACOX2 | 1 | inactive
GHRH | 0 | inactive
FADS2 | 0 | inactive
